Laboratory results published in patent publication US20240190950A1, “METHOD OF TREATING DISEASES USING GREMLIN1 ANTAGONISTS” (SHANGHAI JIAO TONG UNIVERSITY, priority 2021, published 2024).
Positions count from the first letter of the chain named. Names may count otherwise. No constants are given. Whether binding was seen depends on the method and setting. Binding seen in cells or lysates may run through a third protein. Some results given as binding are weak or reduced against the parent protein; the word gives no strength.

Sequences of proteins named here, by UniProt entry; tags and fusion partners are left off. A change or cut given only in a name is not applied to a line headed by its entry.
UniProt P11362: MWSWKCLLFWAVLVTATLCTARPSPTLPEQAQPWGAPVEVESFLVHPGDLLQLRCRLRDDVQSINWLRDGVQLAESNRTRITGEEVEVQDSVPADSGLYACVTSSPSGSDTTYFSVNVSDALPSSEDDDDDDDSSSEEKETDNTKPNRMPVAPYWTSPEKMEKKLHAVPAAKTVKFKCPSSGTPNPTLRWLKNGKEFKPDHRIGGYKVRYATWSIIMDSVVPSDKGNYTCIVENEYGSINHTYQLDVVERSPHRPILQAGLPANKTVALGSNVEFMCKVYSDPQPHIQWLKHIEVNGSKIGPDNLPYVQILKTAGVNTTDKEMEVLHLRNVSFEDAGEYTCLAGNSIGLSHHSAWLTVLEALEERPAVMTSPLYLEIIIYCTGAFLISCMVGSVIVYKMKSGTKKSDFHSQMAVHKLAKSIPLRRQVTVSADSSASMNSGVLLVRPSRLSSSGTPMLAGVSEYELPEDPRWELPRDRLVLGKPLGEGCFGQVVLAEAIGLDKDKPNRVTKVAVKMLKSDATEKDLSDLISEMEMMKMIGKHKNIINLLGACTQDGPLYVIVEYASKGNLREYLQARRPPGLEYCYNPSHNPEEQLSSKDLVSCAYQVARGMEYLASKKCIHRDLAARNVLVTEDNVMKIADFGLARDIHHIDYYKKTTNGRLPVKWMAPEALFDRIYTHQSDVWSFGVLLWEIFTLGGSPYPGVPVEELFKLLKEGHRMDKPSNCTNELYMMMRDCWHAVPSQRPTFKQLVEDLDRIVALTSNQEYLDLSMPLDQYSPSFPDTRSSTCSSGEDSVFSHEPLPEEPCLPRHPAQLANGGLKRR

B1: K66G-R67G (ligand)
single chain: KKKGSQGAIPPPDKAQHNDSEQTQSPQQPGSRNRGRGQGRGTAMPGEEVLESSQEALHVTERKYLGGDWCKTQPLKQTIHEEGCNSRTIINRFCYGQCNSFYIPRHIRKEEGSFQSCSFCKPKKFTTMMVTLNCPELQPPTKKKRVTRVKQCRCISIDLD
B2: R92A-R148A (ligand)
single chain: B1 single chain with G66K, G67R, R92A, R148A

Target: FGFR1 expressed in cells (HA-tagged FGFR1; endogenous FGFR1) (human) (UniProt P11362)
Experiment: co-immunoprecipitation, IP: Flag of GREM1-Flag mutants, blot for FGFR1

Binder	binding
B1	binds
B2	binds
